Reference: PubChem BioAssay AID1487 (National Center for Advancing Translational Sciences (NCATS), 2009)
Some of the results follow. Shown are side measurements of this screen, not its main read-out; they come without a call. The list favours compounds with an active or inconclusive main result. The note in brackets gives the kind of curve behind each potency; many fits are weak.

Test: qHTS Assay for Modulators of Lamin A Splicing
Conditions: HeLa LMNA splicing GFP/RFP minigene ratio, 48 h
How it was run: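 S3 HeLa stable clones carrying a lamin A-EGFP splicing minigene plus DsRed2 were seeded at 600 cells/well in Opti-MEM with 2% FBS, pin-dosed and incubated 48 h at 37°C. Acumen cytometry (488 nm) gave the GFP/RFP total-intensity ratio.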

[1] = measured here: GFP splicing reporter channel
[2] = measured here: RFP viability control channel

SMILES	AC50 [1]	AC50 [2]
O=C(CSc1nnnn1C1CCCCC1)Nc1nc2c(s1)CCCC2	12.6 µM [rising, partial curve, poor fit]	22.4 µM [rising, partial curve]
CC(=O)Nc1ccc(-c2nnc(SCC(=O)c3ccc4c(c3)Cc3ccccc3-4)n2C)cc1	35.5 µM [falling, single point]	35.5 µM [falling, single point]
CCOC(=O)c1c(NC(NC(C)=O)C(Cl)(Cl)Cl)sc2c1CCCC2 (stereo not given)	35.5 µM [falling, partial curve, poor fit]	25.1 µM [falling, partial curve, poor fit]
O=C(c1ccccc1NS(=O)(=O)c1ccc(Cl)cc1)N1CCc2ccccc21		35.5 µM [rising, single point]
CCn1c(C(=O)N2CCC(C(=O)N3CCN(c4ccccn4)CC3)CC2)cc2sccc21		10 µM [rising, partial curve]
CC1CN(c2ccc(NS(=O)(=O)c3ccccc3)cc2C(=O)O)CC(C)O1 (stereo not given)		10 µM [falling, single point]
COC(=O)c1ccccc1NC(=O)c1cnc2sc(N3CCOCC3)nn2c1=O	6.31 µM [falling, partial curve, poor fit]	5.62 µM [falling, partial curve, poor fit]
O=CN1CCN(c2ncnc3c2nnn3Cc2c(F)cccc2Cl)CC1	2 µM [rising, partial curve, poor fit]	2.51 µM [rising, full curve, poor fit]
CCN(Cc1cc(OC)c(OC)c(OC)c1)C(=S)Nc1cccc(SC)c1	3.16 µM [rising, partial curve, poor fit]	
N/C(=N\OC(=O)c1ccc(Cl)cc1)c1ccccn1	35.5 µM [falling, single point]	22.4 µM [falling, partial curve]
CCn1c2ccccc2c2cc(NC(=O)CSc3nnc(C4CC4)n3Cc3ccco3)ccc21	12.6 µM [rising, partial curve, poor fit]	17.8 µM [rising, partial curve, poor fit]
CCC(C)NC(=O)Cc1ccc(NC(=O)N2CCCCc3ccccc32)cc1 (stereo not given)		0.00316 µM [falling, full curve, poor fit]
CCCCCOc1ccc(N2C(=O)C3C4C=CC(C3C2=O)N(C)C4=O)cc1 (stereo not given)		15.8 µM [rising, single point]
S=C(Nc1cccc(Br)c1)c1ccccc1		10 µM [rising, partial curve, poor fit]
O=C(CS(=O)(=O)c1cccc2nsnc12)Nc1ccc(F)cc1F	10 µM [falling, partial curve, poor fit]	7.08 µM [falling, full curve]
Cc1ccc(S(=O)(=O)N2CCCOC2CNC(=O)C(=O)NCCc2c[nH]c3ccccc23)cc1 (stereo not given)	11.2 µM [rising, partial curve]	15.8 µM [rising, partial curve]

SMILES	AC50 [1]	AC50 [2]
O=C(Cn1ncc2c1-c1ccccc1OC2)N1CCN(c2ccccn2)CC1	35.5 µM [rising, single point]	
COc1ccc(N=c2cc(-c3ccc(OC)cc3)oc3ccccc23)cc1	31.6 µM [rising, single point]	35.5 µM [rising, single point]
CC(=O)N1CCOc2cc(S(=O)(=O)Nc3c(C)cccc3C(C)C)c(Cl)cc21		0.1 µM [falling, full curve]
CCOC(=O)N1CCC(N(CCN(C)C)C(=S)Nc2ccc(F)c(Cl)c2)CC1	7.94 µM [falling, partial curve, poor fit]	12.6 µM [falling, partial curve, poor fit]
CCOC(=O)c1c(-c2ccc(OC)cc2)csc1NC(=O)COc1ccc2c(C)cc(=O)oc2c1	0.251 µM [falling, partial curve]	
O=C(c1ccc(-c2ccccc2)c(F)c1)C1CCCN(C(=O)c2cncs2)C1 (stereo not given)		12.6 µM [falling, partial curve, poor fit]
O=[N+]([O-])/C(N=Nc1ccccc1)=N\Nc1ccccc1	14.1 µM [rising, partial curve]	31.6 µM [rising, single point]
CC(C)c1ccc(S(=O)(=O)c2n[nH]n3c2nc(=O)c2ccccc23)cc1		22.4 µM [rising, single point]
Cc1ccc2oc(=O)n(CCOc3ccccc3C)c2c1	0.0501 µM [rising, full curve, poor fit]	0.0141 µM [rising, full curve, poor fit]
Cc1cccc(Sc2ccc([N+](=O)[O-])cc2[N+](=O)[O-])n1	15.8 µM [rising, single point]	17.8 µM [rising, single point]
COc1ccc(OCC(O)Cn2cnc(-c3ccc(Br)cc3)c2)cc1 (stereo not given)	12.6 µM [rising, single point]	31.6 µM [rising, single point]
COCCCN=C1NN=C(c2cc(C)n(-c3ccccc3)c2C)CS1		0.0562 µM [falling, partial curve, poor fit]
CC1(C)Cc2c(ccc3ccccc23)/C(=C/C#N)N1	20 µM [rising, single point]	25.1 µM [rising, single point]
O=C(Cc1ccc(-n2cccc2)cc1)N1CCN(c2ccccc2F)CC1	10 µM [rising, partial curve]	10 µM [rising, partial curve]
COc1cc(/C=N/NC(=O)CCN2CCCCC2)ccc1O	0.0794 µM [falling, full curve, poor fit]	0.02 µM [falling, full curve, poor fit]
COc1ccc(-c2cc(OC)c3c(C)oc(C)c3c(=O)c2)cc1OC		0.0891 µM [rising, full curve, poor fit]

Nine compounds from above, ordered by molar mass, falling.
SMILES	AC50 [1]	AC50 [2]
CCOC(=O)N1CCC(N(CCN(C)C)C(=S)Nc2ccc(F)c(Cl)c2)CC1	7.94 µM [falling, partial curve, poor fit]	12.6 µM [falling, partial curve, poor fit]
COc1ccc(OCC(O)Cn2cnc(-c3ccc(Br)cc3)c2)cc1 (stereo not given)	12.6 µM [rising, single point]	31.6 µM [rising, single point]
CC(C)c1ccc(S(=O)(=O)c2n[nH]n3c2nc(=O)c2ccccc23)cc1		22.4 µM [rising, single point]
O=C(Cc1ccc(-n2cccc2)cc1)N1CCN(c2ccccc2F)CC1	10 µM [rising, partial curve]	10 µM [rising, partial curve]
COc1ccc(N=c2cc(-c3ccc(OC)cc3)oc3ccccc23)cc1	31.6 µM [rising, single point]	35.5 µM [rising, single point]
COCCCN=C1NN=C(c2cc(C)n(-c3ccccc3)c2C)CS1		0.0562 µM [falling, partial curve, poor fit]
COc1ccc(-c2cc(OC)c3c(C)oc(C)c3c(=O)c2)cc1OC		0.0891 µM [rising, full curve, poor fit]
COc1cc(/C=N/NC(=O)CCN2CCCCC2)ccc1O	0.0794 µM [falling, full curve, poor fit]	0.02 µM [falling, full curve, poor fit]
O=[N+]([O-])/C(N=Nc1ccccc1)=N\Nc1ccccc1	14.1 µM [rising, partial curve]	31.6 µM [rising, single point]
